The star is where a group is joined. Fmoc = O=C(OCC1c2ccccc2-c2ccccc21)*
Assay: solid-phase peptide synthesis
Settings: whole synthesis, scale 0.5 mmol

## Fmoc-GNWHGTAP-OH
  crude mass: 464.0 mg
  isolated mass: 131.9 mg

Source: US6872803B1 (Kyowa Hakko Kogyo Co., Ltd., priority 1993, dated 2005)
